According to doi:10.1101/611582:
Results are given in words; binding and its absence hold for the method and conditions named. In cells and extracts the contact can be indirect. Some entries that bind do so weakly or less than the wild type. For some assays here: Where a sequence is shown, tags or fusion partners need not be part of it.

Sequences of proteins named here, by UniProt entry; tags and fusion partners are left off. Residues count along the entry.
UniProt O22476, residues 24-1196: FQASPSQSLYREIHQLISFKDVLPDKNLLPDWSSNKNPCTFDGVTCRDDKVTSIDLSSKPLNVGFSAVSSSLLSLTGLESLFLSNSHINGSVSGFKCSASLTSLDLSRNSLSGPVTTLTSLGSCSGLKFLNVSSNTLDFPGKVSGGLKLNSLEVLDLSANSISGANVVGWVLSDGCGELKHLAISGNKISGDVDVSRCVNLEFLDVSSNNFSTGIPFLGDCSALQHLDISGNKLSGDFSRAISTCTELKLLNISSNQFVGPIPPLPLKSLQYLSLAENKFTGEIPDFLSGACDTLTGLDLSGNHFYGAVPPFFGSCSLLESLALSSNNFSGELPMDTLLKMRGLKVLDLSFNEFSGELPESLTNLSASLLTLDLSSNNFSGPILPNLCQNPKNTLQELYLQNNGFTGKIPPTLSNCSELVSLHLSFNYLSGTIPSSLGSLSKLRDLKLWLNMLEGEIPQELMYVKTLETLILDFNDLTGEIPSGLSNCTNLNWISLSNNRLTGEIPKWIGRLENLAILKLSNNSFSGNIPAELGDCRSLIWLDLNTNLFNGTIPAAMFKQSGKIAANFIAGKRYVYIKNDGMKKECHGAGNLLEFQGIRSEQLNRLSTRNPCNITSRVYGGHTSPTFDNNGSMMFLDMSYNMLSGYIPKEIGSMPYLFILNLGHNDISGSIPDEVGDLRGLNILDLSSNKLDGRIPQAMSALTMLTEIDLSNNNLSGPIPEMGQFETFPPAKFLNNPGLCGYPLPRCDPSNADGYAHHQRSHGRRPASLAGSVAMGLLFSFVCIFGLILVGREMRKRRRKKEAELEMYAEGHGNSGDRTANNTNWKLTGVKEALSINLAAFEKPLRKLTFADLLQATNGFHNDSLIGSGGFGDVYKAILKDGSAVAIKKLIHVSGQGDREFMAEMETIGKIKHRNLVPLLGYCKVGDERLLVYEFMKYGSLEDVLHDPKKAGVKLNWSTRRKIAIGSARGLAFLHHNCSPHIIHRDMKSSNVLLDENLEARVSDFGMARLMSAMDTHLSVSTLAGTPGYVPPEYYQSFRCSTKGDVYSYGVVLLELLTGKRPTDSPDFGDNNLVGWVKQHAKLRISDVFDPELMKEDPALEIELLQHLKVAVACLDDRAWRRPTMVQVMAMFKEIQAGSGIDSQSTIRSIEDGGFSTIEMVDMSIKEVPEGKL

T1: Citrine-LYM2 (LysM-CONTAINING GPI-ANCHORED PROTEIN 2) (Arabidopsis) (UniProt O23006)
T1 sequence: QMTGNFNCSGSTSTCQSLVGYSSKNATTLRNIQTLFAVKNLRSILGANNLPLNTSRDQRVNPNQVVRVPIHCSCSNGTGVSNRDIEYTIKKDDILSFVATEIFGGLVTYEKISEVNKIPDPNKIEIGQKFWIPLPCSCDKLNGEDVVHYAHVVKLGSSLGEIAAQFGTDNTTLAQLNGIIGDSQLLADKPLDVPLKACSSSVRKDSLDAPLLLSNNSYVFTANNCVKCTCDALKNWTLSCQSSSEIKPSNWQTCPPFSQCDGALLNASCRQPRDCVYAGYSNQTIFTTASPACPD

T2: LYK4-GFP (Arabidopsis (Col-0 cDNA)) (UniProt O64825)
T2 sequence: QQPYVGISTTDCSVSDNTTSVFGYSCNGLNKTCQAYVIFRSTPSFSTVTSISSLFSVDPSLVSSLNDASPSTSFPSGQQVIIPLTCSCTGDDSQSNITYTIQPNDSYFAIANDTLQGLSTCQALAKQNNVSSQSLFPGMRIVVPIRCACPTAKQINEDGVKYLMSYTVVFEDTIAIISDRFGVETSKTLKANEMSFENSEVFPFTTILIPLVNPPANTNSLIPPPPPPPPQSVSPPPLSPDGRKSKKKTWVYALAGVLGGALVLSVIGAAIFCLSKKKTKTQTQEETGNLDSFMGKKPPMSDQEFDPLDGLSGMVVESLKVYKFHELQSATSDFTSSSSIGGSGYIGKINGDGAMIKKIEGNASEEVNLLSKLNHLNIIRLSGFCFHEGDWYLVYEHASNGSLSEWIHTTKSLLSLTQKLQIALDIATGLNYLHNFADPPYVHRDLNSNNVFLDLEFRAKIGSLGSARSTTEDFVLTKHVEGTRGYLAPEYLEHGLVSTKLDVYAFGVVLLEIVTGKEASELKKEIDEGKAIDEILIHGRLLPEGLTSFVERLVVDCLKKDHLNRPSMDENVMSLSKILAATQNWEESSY

T3: CPK6-GFP (Arabidopsis (Col-0 cDNA)) (UniProt Q38872)
T3 sequence: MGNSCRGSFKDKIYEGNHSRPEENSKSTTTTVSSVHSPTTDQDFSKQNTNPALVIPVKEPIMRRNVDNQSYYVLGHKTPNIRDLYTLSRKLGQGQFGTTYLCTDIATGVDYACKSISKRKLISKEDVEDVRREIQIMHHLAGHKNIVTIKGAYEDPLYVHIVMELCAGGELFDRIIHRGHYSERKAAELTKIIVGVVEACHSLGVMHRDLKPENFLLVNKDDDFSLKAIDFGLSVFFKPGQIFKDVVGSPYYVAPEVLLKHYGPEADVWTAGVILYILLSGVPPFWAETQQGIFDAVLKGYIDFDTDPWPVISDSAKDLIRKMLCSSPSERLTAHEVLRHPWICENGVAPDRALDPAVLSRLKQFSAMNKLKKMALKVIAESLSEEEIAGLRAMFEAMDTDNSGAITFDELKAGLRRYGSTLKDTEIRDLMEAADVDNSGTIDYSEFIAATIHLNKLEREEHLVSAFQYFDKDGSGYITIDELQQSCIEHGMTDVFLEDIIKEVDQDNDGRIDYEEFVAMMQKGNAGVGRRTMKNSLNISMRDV

T4: Citrine-LYM2 expressed in Arabidopsis protoplasts (Arabidopsis) (UniProt O23006)
T4 sequence: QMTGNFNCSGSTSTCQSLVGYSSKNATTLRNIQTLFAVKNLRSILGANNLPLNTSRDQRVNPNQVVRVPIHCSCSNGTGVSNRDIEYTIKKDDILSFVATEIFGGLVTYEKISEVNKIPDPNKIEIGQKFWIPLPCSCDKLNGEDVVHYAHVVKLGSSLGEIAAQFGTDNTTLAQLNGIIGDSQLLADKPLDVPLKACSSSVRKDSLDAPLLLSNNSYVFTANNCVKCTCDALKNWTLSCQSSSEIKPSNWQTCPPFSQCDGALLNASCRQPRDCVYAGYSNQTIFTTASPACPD


Assays:
[1] = target: T1, Citrine-LYM2 (LysM-CONTAINING GPI-ANCHORED PROTEIN 2) (Arabidopsis); test: co-IP
[2] = target: T2, LYK4-GFP (Arabidopsis (Col-0 cDNA)); test: co-IP
[3] = target: T3, CPK6-GFP (Arabidopsis (Col-0 cDNA)); test: co-IP
[4] = target: T4, Citrine-LYM2 expressed in Arabidopsis protoplasts (Arabidopsis); test: co-IP
[5] = target: T2, LYK4-GFP (Arabidopsis (Col-0 cDNA)); test: FRET or BRET
[6] = target: T1, Citrine-LYM2 (LysM-CONTAINING GPI-ANCHORED PROTEIN 2) (Arabidopsis); test: FRET or BRET

binding [1] | binding [2] | Molecule | also measured
no binding | no binding | BRI1-RFP (from UniProt O22476 24-1196) (receptor) | –
binds | – | LYK4-HA (receptor, UniProt O64825 23-612) QQPYVGISTTDCSVSDNTTSVFGYSCNGLNKTCQAYVIFRSTPSFSTVTSISSLFSVDPSLVSSLNDASPSTSFPSGQQVIIPLTCSCTGDDSQSNITYTIQPNDSYFAIANDTLQGLSTCQALAKQNNVSSQSLFPGMRIVVPIRCACPTAKQINEDGVKYLMSYTVVFEDTIAIISDRFGVETSKTLKANEMSFENSEVFPFTTILIPLVNPPANTNSLIPPPPPPPPQSVSPPPLSPDGRKSKKKTWVYALAGVLGGALVLSVIGAAIFCLSKKKTKTQTQEETGNLDSFMGKKPPMSDQEFDPLDGLSGMVVESLKVYKFHELQSATSDFTSSSSIGGSGYIGKINGDGAMIKKIEGNASEEVNLLSKLNHLNIIRLSGFCFHEGDWYLVYEHASNGSLSEWIHTTKSLLSLTQKLQIALDIATGLNYLHNFADPPYVHRDLNSNNVFLDLEFRAKIGSLGSARSTTEDFVLTKHVEGTRGYLAPEYLEHGLVSTKLDVYAFGVVLLEIVTGKEASELKKEIDEGKAIDEILIHGRLLPEGLTSFVERLVVDCLKKDHLNRPSMDENVMSLSKILAATQNWEESSY | binding [3]: binds
– | – | LYK4-RFP expressed in Arabidopsis protoplasts (receptor, UniProt O64825 23-612) QQPYVGISTTDCSVSDNTTSVFGYSCNGLNKTCQAYVIFRSTPSFSTVTSISSLFSVDPSLVSSLNDASPSTSFPSGQQVIIPLTCSCTGDDSQSNITYTIQPNDSYFAIANDTLQGLSTCQALAKQNNVSSQSLFPGMRIVVPIRCACPTAKQINEDGVKYLMSYTVVFEDTIAIISDRFGVETSKTLKANEMSFENSEVFPFTTILIPLVNPPANTNSLIPPPPPPPPQSVSPPPLSPDGRKSKKKTWVYALAGVLGGALVLSVIGAAIFCLSKKKTKTQTQEETGNLDSFMGKKPPMSDQEFDPLDGLSGMVVESLKVYKFHELQSATSDFTSSSSIGGSGYIGKINGDGAMIKKIEGNASEEVNLLSKLNHLNIIRLSGFCFHEGDWYLVYEHASNGSLSEWIHTTKSLLSLTQKLQIALDIATGLNYLHNFADPPYVHRDLNSNNVFLDLEFRAKIGSLGSARSTTEDFVLTKHVEGTRGYLAPEYLEHGLVSTKLDVYAFGVVLLEIVTGKEASELKKEIDEGKAIDEILIHGRLLPEGLTSFVERLVVDCLKKDHLNRPSMDENVMSLSKILAATQNWEESSY | binding [4]: binds
– | binds | LYK5-RFP (receptor, UniProt O22808 27-664) QQPYVNNHQLACEVRVYDNITNGFTCNGPPSCRSYLTFWSQPPYNTADSIAKLLNVSAAEIQSINNLPTATTRIPTRELVVIPANCSCSSSSGGFYQHNATYNLSGNRGDETYFSVANDTYQALSTCQAMMSQNRYGERQLTPGLNLLVPLRCACPTAKQTTAGFKYLLTYLVAMGDSISGIAEMFNSTSAAITEGNELTSDNIFFFTPVLVPLTTEPTKIVISPSPPPPPVVATPPQTPVDPPGSSSSHKWIYIGIGIGAGLLLLLSILALCFYKRRSKKKSLPSSLPEENKLFDSSTKQSIPTTTTTQWSIDLSNSSEAFGLKSAIESLTLYRFNDLQSATSNFSDENRIKGSVYRATINGDDAAVKVIKGDVSSSEINLLKKLNHSNIIRLSGFCIREGTSYLVFEYSENGSISDWLHSSGKKSLTWKQRVEIARDVAEALDYLHNYITPPHIHKNLESTNILLDSNFRAKIANFGVARILDEGDLDLQLTRHVEGTQGYLAPEYVENGVITSKLDVFAFGVAVLELLSGREAVTIHKKKEGEEEVEMLCKVINSVLGGENVREKLKEFMDPSLGNEYPLELAYTMAQLAKSCVATDLNSRPSVTQVLTTLSMIVSSSIDWEPSDDLLRSGSLGN | binding [5]: binds
– | – | Citrine-LYM2 (LysM-CONTAINING GPI-ANCHORED PROTEIN 2) (receptor, UniProt O23006 24-318) QMTGNFNCSGSTSTCQSLVGYSSKNATTLRNIQTLFAVKNLRSILGANNLPLNTSRDQRVNPNQVVRVPIHCSCSNGTGVSNRDIEYTIKKDDILSFVATEIFGGLVTYEKISEVNKIPDPNKIEIGQKFWIPLPCSCDKLNGEDVVHYAHVVKLGSSLGEIAAQFGTDNTTLAQLNGIIGDSQLLADKPLDVPLKACSSSVRKDSLDAPLLLSNNSYVFTANNCVKCTCDALKNWTLSCQSSSEIKPSNWQTCPPFSQCDGALLNASCRQPRDCVYAGYSNQTIFTTASPACPD | binding [6]: binds
